PubChem BioAssay AID686943, Drosophila RNAi Screening Center – 2013
The deposit covers about 23,000 reagents; below is a random part of those with a known target gene and a result. 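Extra replicates exist only for a retested subset of genes; insulin dose and duration not given; both raised and lowered dpERK matter.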 A plus sign joins genes that one reagent is predicted to hit. Further read-outs or replicates are left out here. Reagent sequences are not shown. Not stated in the record: the amount of reagent, the time to read-out.

- Purpose: 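Knockdowns that increase or decrease active ERK after insulin receptor stimulation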 (primary screen)
- Cells: Drosophila S2R+ haemocyte-like cells expressing YFP-tagged ERK (Rolled)
- Reagents: long dsRNA against Drosophila genes
- Treatment: insulin stimulation versus unstimulated cells; dose and duration not given
- Measured: 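Antibody staining for doubly phosphorylated ERK divided by ERK-YFP signal, as plate z-scores, in insulin-treated and untreated cells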
- Scale: replicate 1, z-score of dpERK with insulin: higher = more active ERK per ERK-YFP after insulin

| gene | dsRNA | replicate 1, z-score of dpERK with insulin |
| --- | --- | --- |
| zpg | DRSC09702 | 0.24 |
| crok | DRSC02593 | 0.68 |
| crok | DRSC21349 | 0.71 |
| ATP6 (retired record) | DRSC21278 | 0.52 |
| PH4alphaNE1 | DRSC16546 | -0.76 |
| CG7049 | DRSC08587 | 0.69 |
| CG9095 | DRSC20150 | 0.5 |
| TTLL3A | DRSC02143 | 0.4 |
| CG34384 | DRSC12642 | 0.43 |
| CG34384 | DRSC12644 | -0.25 |
| CG34384 | DRSC14855 | -1.11 |
| CG34384 | DRSC15444 | 0.2 |
| CG34384 | DRSC16575 | 0.79 |
| wcy | DRSC20132 | 0.6 |
| Zasp66 | DRSC08932 | -0.54 |
| Zasp66 | DRSC10631 | 0.1 |
| Zasp66 | DRSC10632 | 0.84 |
| NKAIN | DRSC04531 | -0.35 |
| NKAIN | DRSC22470 | 0.43 |
| CG34106 | DRSC01578 | 0.11 |
| mon2 | DRSC03112 | 0.09 |
| Fgop2 | DRSC02016 | -0.36 |
| cac | DRSC19743 | 0.47 |
| cac | DRSC20354 | -0.15 |
| Mzt1 | DRSC07979 | -0.37 |
| eya | DRSC03510 | -0.83 |
| CG11585 | DRSC19410 | 0.12 |
| P5cr | DRSC16782 | 0.78 |
| CG13724 | DRSC10053 | 0.23 |
| CG32204 | DRSC09574 | 4.82 |
| CG13059 | DRSC09942 | -0.58 |
| DCAF12 | DRSC15475 | -0.78 |
| Gp210 | DRSC04861 | 0.27 |
| Gp210 | DRSC04900 | 0.7 |
| Dus4 | DRSC02066 | -0.34 |
| Cpr64Aa | DRSC08460 | -0.37 |
| CG4653 | DRSC19909 | 1.2 |
| CG4653 | DRSC22857 | -3.51 |
| RpL27 | DRSC15638 | 0.15 |
| KP78a + KP78b | DRSC16721 | -0.7 |
| KP78a + KP78b | DRSC16722 | -0.5 |
| CG14891 | DRSC15013 | -0.12 |
| Vps11 | DRSC11909 | 0.51 |
| Vps11 | DRSC21579 | 0.11 |
| Atg4a | DRSC00656 | 0.3 |
| xmas-1 (retired record) | DRSC20386 | -0.89 |
| CG32075 | DRSC10622 | -0.07 |
| CG15549 | DRSC15087 | 0.06 |
| Lcp1Psi | DRSC05105 | -1.12 |
| kek2 | DRSC03552 | 0.01 |
| CG31601 | DRSC03678 | -0.37 |
| tty | DRSC20588 | 1.2 |
| Panx | DRSC04563 | 1.52 |
| CG15282 | DRSC22620 | -1.22 |
| CG3704 | DRSC18174 | 0.46 |
| CG3704 | DRSC18645 | 1.1 |
| CG9667 | DRSC16535 | 1.69 |
| CG7606 | DRSC13246 | -0.77 |
| CG7606 | DRSC16268 | 2.13 |
| Tdrd3 | DRSC10016 | -0.27 |
| FRG1 | DRSC10648 | 0.1 |
| CG31821 | DRSC22162 | -0.86 |
| CG11590 | DRSC19411 | 0.06 |
| Der-1 | DRSC00301 | -0.62 |
| BBS9 | DRSC04257 | 0.72 |
| mei-41 | DRSC20350 | 0.38 |
| CG12581 | DRSC12206 | -0.09 |
| CG12581 | DRSC12207 | 0.49 |
| CG34330 | DRSC20043 | 1.26 |
| CG18557 | DRSC00524 | 0.66 |
| Srp54k | DRSC11289 | -0.51 |
| CG1523 | DRSC15033 | -0.25 |
| Or1a | DRSC18689 | 0 |

In a second layout: entries from further up
{"gene":"RpL27","dsRNA":"DRSC15638","replicate 1, z-score of dpERK with insulin":0.15}
{"gene":"KP78a + KP78b","dsRNA":"DRSC16721","replicate 1, z-score of dpERK with insulin":-0.7}
{"gene":"KP78a + KP78b","dsRNA":"DRSC16722","replicate 1, z-score of dpERK with insulin":-0.5}
{"gene":"CG14891","dsRNA":"DRSC15013","replicate 1, z-score of dpERK with insulin":-0.12}
{"gene":"Vps11","dsRNA":"DRSC11909","replicate 1, z-score of dpERK with insulin":0.51}
{"gene":"Vps11","dsRNA":"DRSC21579","replicate 1, z-score of dpERK with insulin":0.11}
{"gene":"Atg4a","dsRNA":"DRSC00656","replicate 1, z-score of dpERK with insulin":0.3}
{"gene":"xmas-1 (retired record)","dsRNA":"DRSC20386","replicate 1, z-score of dpERK with insulin":-0.89}
{"gene":"CG32075","dsRNA":"DRSC10622","replicate 1, z-score of dpERK with insulin":-0.07}
